Values of other authors as cited in US20040260072A1, “Hydrophilic, thiol-reactive cyanine dyes and conjugates thereof with biomolecules for fluorescence diagnosis” (priority 2003, published 2004).
At least one structure is not confirmed: it was looked up by name or label, or the drawing left a doubt.

Question: Which Absorption maximum does the source give for `CCN1C(=CC=CC=CC=CC2=[N+](CCCCCC(=O)O)c3ccc(S(=O)(=O)O)cc3C2(C)C)C(C)(C)c2cc(S(=O)(=O)[O-])ccc21` [Cy7] here?
Answer: ~745 nm
